Assay results: patent US6982249B1, “Bradykinin analogs as selective inhibitors of cell activation” (The Regents of the University of Michigan, priority 1997, dated 2006)
Not every detail of the peptide structures is certain; ends, links or a residue may be inferred. Ends that are not written are not given here.

Protein sequences, listed by entry. Tags and fused reporters are not part of them. Lines headed by an entry give the natural chain unless they say otherwise; changes in a name come on top.
UniProt P25116: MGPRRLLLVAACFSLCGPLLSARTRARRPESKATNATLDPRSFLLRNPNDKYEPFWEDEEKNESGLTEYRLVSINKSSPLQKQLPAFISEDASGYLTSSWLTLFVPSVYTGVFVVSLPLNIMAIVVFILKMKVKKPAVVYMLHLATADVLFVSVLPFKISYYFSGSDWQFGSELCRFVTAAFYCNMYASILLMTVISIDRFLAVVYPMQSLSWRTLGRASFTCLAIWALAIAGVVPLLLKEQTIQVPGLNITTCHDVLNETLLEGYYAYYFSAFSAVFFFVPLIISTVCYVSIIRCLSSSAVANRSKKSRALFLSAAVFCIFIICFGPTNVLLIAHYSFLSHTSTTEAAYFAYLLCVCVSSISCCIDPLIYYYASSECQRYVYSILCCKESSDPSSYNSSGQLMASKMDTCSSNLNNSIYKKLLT

Molecular target: T1, NAT12 (thrombin receptor cleavage site) (Homo sapiens, UniProt P25116)
T1 construct: spans amino acids 35-46 of the α-thrombin cleavage site on the thrombin receptor
Assay: Binding of biotinylated NAT12 to peptides linked to microtiter plates
Details: peptide linked to microtiter plate
Method: Peptides from a combinatorial library are linked to microtiter plates and the wells are blocked with 1% BSA. Biotinylated-NAT12 is incubated with the microtiter plates. After washing, the presence of biotin-NAT12 attached to the matrix support expressing peptides is detected by incubation with ImmunoPure streptavidin horseradish peroxidase conjugate (Pierce Chemical Co., Rockville Ill.) followed by peroxidase-specific fast reacting substrate, turbo-3,3′,5,5′-tetramethylbenzidine (turbo-TMB, Pierce Chemical Co., Rockville Ill.). After incubation for 5 min at room temperature, the color reaction of the turbo-TMB is stopped by the addition of 1 M phosphoric acid. The bound peptide is quantified by measuring the absorbance of the reaction mixture at 450 nm using a Microplate auto reader EL311 (BioTek Instrument, Winooski Vt.).
The specific binding of biotinylated NAT12 to BK analogs and other peptides was assayed as described in Example 2A.

Substance: RPPGF [RPPGF, Arg-Pro-Pro-Gly-Phe]
- specific binding of biotinylated NAT12 to the peptide (FIG. 4): specifically bound
